# PubChem BioAssay AID743454 – Peter MacCallum Cancer Centre, 2014
# Aim: 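Search for knock-downs that restore vorinostat killing in resistant colon cancer cells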 (primary screen)
# Cells: human HCT116-VR colon cancer cells, selected for vorinostat resistance
# Knock-down reagent: siRNA pool against human genes, 40 nM siRNA pool
# Time to read-out: vorinostat for 24 h, read-out about 72 h after transfection
# Challenge: vorinostat at 2.5 µM final
# Measured: 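Two measures, CellTiter-Fluor viability and luminescent caspase 3/7 activity, each as fold change against same-plate mock wells, mean of duplicates, then screen-wide robust z-score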
# Direction: viability robust z-score: higher = more viable cells than screen typical; caspase robust z-score: higher = more caspase 3/7 activity than screen typical
# Call rule: 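Hits are knock-downs in viability class RV1/RV2 or caspase class CA1/CA2, excluding ones that killed cells in the no-drug cell-count arm; hits then retested with single siRNAs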
# The deposit covers about 18,000 reagents; below is a random part of them. Over the whole deposit, 450 (2.5%) got an active call. 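Single biological run; no consistent viability z cut-off exists, so the class columns, not z-scores, define the calls.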 Unmarked entries are inactive.
gene,PubChem SID,viability hit class,caspase hit class,viability robust z-score,caspase robust z-score
ASB17,SID134319331,no change,no change,0.14,-0.4
TNFRSF25,SID135620833,no change,no change,-0.46,-0.3
TACC3,SID134310293,no change,no change,-1.12,2.14
SPTLC1,SID135621233,no change,no change,-0.61,3.08
LRRC75B,SID135625099,no change,no change,2.29,0.96
PPIL1,SID134313139,no change,no change,-0.84,-1
TAMALIN,SID152150837,no change,no change,0.89,-0.06
LSM10,SID135622867,no change,no change,0.1,0.59
EFNA5,SID152151552,no change,no change,-1.13,1.09
AKAP5,SID152152170,no change,no change,-0.6,-0.38
ZC3H14,SID135622751,no change,no change,-0.43,0.24
AP5S1,SID134324840,RV2 (reduced viability) (active),no change,-2.96,0.26
STAC,SID134323501,no change,no change,-0.04,0.07
DRC7,SID152150631,no change,no change,-0.09,-0.13
COL25A1,SID134318998,no change,no change,-0.14,0.11
SLC37A4,SID152155195,no change,no change,-0.02,0.03
FXYD6,SID134317294,no change,no change,-1.4,0.75
MCL1,SID135620835,no change,no change,-0.17,1.29
SLC15A3,SID134312448,no change,no change,1.09,0.13
BEX5,SID152154379,no change,no change,-1.93,2.01
FKBP4,SID135621194,no change,no change,0.03,0.69
ARID4B,SID152150792,no change,no change,1.58,-0.54
EIF2B5,SID135622351,RV2 (reduced viability) (active),no change,-3.2,-0.56
CDK11A,SID152154784,no change,no change,-2.82,1.31
MS4A13,SID135625173,no change,no change,0.01,-1.19
PUS3,SID152147181,no change,no change,0.72,0.04
AGMAT,SID134324931,no change,no change,1.02,-0.24
LIMS3,SID134319179,no change,no change,1.1,0.26
GATA3,SID134310077,no change,no change,0.26,0.33
HSP90AA1,SID152151429,no change,no change,0.73,-0.98
CD68,SID135622085,no change,no change,0.11,-0.02
IFNA21,SID134323430,no change,no change,-1.81,-0.74
ETNK2,SID56478982,no change,no change,-1.82,-1.37
PROX2,SID152155561,no change,no change,-0.91,-0.29
C9orf40,SID135624115,no change,no change,-1.01,-0.68
SPTAN1,SID152154169,no change,no change,1.18,-0.44
EZHIP,SID134329382,no change,no change,0.61,0
SYS1,SID152150997,no change,no change,-3.06,1.1
GNS,SID135621529,no change,no change,-0.1,-0.69
RFX6,SID134322297,no change,no change,0.06,-1.11
MYL6B,SID152147074,no change,no change,0.39,-0.42
ZKSCAN5,SID152152051,no change,no change,-0.86,0.86
CLEC3B,SID152152438,no change,no change,-3.24,3.47
PTPN6,SID152153845,no change,no change,-0.1,0.34
RBM24,SID135621839,no change,no change,-1.23,0.26
CIRSR,SID134320236,no change,no change,0.12,1.02
BLOC1S1,SID134316842,no change,no change,-0.2,1.07
SLCO2B1,SID135621370,no change,no change,1.42,1.34
KCNA7,SID134311635,no change,no change,-0.19,-1.14
NMI,SID134310311,no change,no change,-0.18,-0.68
GCN1,SID135624635,no change,no change,-0.63,0.64
DYNLT5,SID134320189,no change,no change,-1.83,3.19
ZNF442,SID152150032,no change,no change,0.02,-0.36
HOXC4,SID152147160,no change,no change,0.73,-0.42
KBTBD7,SID152156141,no change,no change,0.02,2.62
YPEL5,SID134324036,no change,no change,-0.01,2.53
SDAD1,SID152150570,no change,no change,-1.83,0.38

Records above whose target name starts with R or r (2):
gene,PubChem SID,viability hit class,caspase hit class,viability robust z-score,caspase robust z-score
RFX6,SID134322297,no change,no change,0.06,-1.11
RBM24,SID135621839,no change,no change,-1.23,0.26
